Experimental data reported in article PMC10460844, “Real‐Time Monitoring of Multitarget Antimicrobial Mechanisms of Peptoids Using Label‐Free Imaging with Optical Diffraction Tomography” (Advanced Science, 2023).
Where a name gives a salt, the structure may show the parent alone. Square brackets hold non-standard residues; d marks the D form. Peptide text beside a SMILES is read from it. Gly(N(CH2)2(3-indolyl)) = O=C(O)CNCCc1c[nH]c2ccccc12; Nspe = C[C@H](NCC(=O)O)c1ccccc1; Nlys = NCCCCNCC(=O)O

Tested on: rat erythrocytes
Assay: Hemolysis assay
Type: cell-based
Method: The hemolysis assay was performed using rat erythrocytes in phosphate‐buffered saline (PBS), as reported by Mendes et al.^[ [45] ^] Animal studies were approved by the Laboratory Animal Resource Center of Gwangju Institute of Science and Technology. Blood was collected from a 13‐week‐old male Sprague‐Dawley rat in tubes containing 158 USP units of sodium heparin to prevent coagulation and centrifuged at 1000 rpm for 10 min at 4 °C. Plasma was removed carefully and erythrocyte pellets were washed three times with PBS (35 mM phosphate, pH 7.4, 150 mM NaCl). Next, 150 µL of a 10% erythrocyte suspension was mixed with 50 µL of serially diluted peptoids (0–100 µM) in a 96‐well black polypropylene plates (Greiner, Kremsmünster, Austria). Untreated erythrocytes and cells lysed by the addition of 1% Triton X‐100 were used as negative and positive controls, respectively, with the 1% Triton X‐100‐treated wells being accepted to represent 100% hemolysis. The reaction mixture was incubated at 37 °C for 60 min, and the plates were centrifuged at 1000 rpm for 15 min. Aliquots (150 µL) of the supernatant were transferred to fresh 96‐well plates, and the absorbance of each well was measured at 540 nm using a microplate reader. Hemolysis induced by peptoids was calculated as the percentage value of Triton X‐100 lysed cells. The percentage of hemolysis by the extracts was calculated according to the following formula: % hemolysis = [(Abs 540 nm in the peptoid solution – Abs 540 nm in PBS) / (Abs 540 nm in 1% Triton X‐100 – Abs 540 nm in PBS)] × 100. HC10 and HC50 were defined as the peptoid concentrations that caused 10% and 50% hemolysis in rat erythrocytes, respectively. H max indicates the percentage of hemolysis observed at the maximum peptoid concentration, 100 µM throughout this study.

[1] = Table S3, HC10 divided by MIC in E. coli ATCC 25922
[2] = HC10 divided by MIC against E. coli ATCC 25922

Compound | selectivity index [1] | selectivity index [2] | selectivity index (Table S2, HC10 divided by MIC in E. coli ATCC 25922)
C[C@@H](c1ccccc1)N(CC(N)=O)C(=O)CN(C(=O)CN(CCCCN)C(=O)CN(C(=O)CN(C(=O)CN(CCCCN)C(=O)CN(C(=O)CN(C(=O)CN(CCCCN)C(=O)CN(C(=O)CN(C(=O)CNCCCCN)[C@@H](C)c1ccccc1)[C@@H](C)c1ccccc1)[C@@H](C)c1ccccc1)[C@@H](C)c1ccccc1)[C@@H](C)c1ccccc1)[C@@H](C)c1ccccc1)[C@@H](C)c1ccccc1 [1-HCl] (H-[Nlys][Nspe][Nspe][Nlys][Nspe][Nspe][Nlys][Nspe][Nspe][Nlys][Nspe][Nspe]-NH2) | 4.4 | – | –
C[C@@H](c1ccccc1)N(CC(=O)N(CCCCN)CC(=O)N(CCc1c[nH]c2ccccc12)CC(=O)N(CCc1c[nH]c2ccccc12)CC(N)=O)C(=O)CN(CCCCN)C(=O)CN(CCCCN)C(=O)CN(C(=O)CN(C(=O)CN(CCCCN)C(=O)CN(C(=O)CN(C(=O)CNCCCCN)[C@@H](C)c1ccccc1)[C@@H](C)c1ccccc1)[C@@H](C)c1ccccc1)[C@@H](C)c1ccccc1 [peptoid 29] (H-[Nlys][Nspe][Nspe][Nlys][Nspe][Nspe][Nlys][Nlys][Nspe][Nlys][Gly(N(CH2)2(3-indolyl))][Gly(N(CH2)2(3-indolyl))]-NH2) | 14.1 | >15.9 | –
C[C@@H](c1ccccc1)N(CC(N)=O)C(=O)CN(CCCCN)C(=O)CN(C(=O)CN(C(=O)CN(CCCCN)C(=O)CN(C(=O)CN(C(=O)CN(CCCCN)C(=O)CN(C(=O)CN(CCCCN)C(=O)CN(CCCCN)C(=O)CN(C(=O)CNCCc1c[nH]c2ccccc12)[C@@H](C)c1ccccc1)[C@@H](C)c1ccccc1)[C@@H](C)c1ccccc1)[C@@H](C)c1ccccc1)[C@@H](C)c1ccccc1)[C@@H](C)c1ccccc1 [peptoid 64] | – | – | 5.7
C[C@@H](c1ccccc1)N(CC(N)=O)C(=O)CN(C(=O)CN(CCCCN)C(=O)CN(C(=O)CN(C(=O)CN(CCCCN)C(=O)CN(C(=O)CN(C(=O)CN(CCCCN)C(=O)CN(C(=O)CN(C(=O)CNCCCCN)[C@@H](C)c1ccccc1)[C@@H](C)c1ccccc1)[C@@H](C)c1ccccc1)[C@@H](C)c1ccccc1)[C@@H](C)c1ccccc1)[C@@H](C)c1ccccc1)[C@@H](C)c1ccccc1 [1-AcOH] (H-[Nlys][Nspe][Nspe][Nlys][Nspe][Nspe][Nlys][Nspe][Nspe][Nlys][Nspe][Nspe]-NH2) | 2.0 | – | –
C[C@@H](c1ccccc1)N(CC(N)=O)C(=O)CN(C(=O)CN(CCCCN)C(=O)CN(C(=O)CN(C(=O)CN(CCCCN)C(=O)CN(C(=O)CN(C(=O)CN(CCCCN)C(=O)CN(C(=O)CN(C(=O)CNCCCCN)[C@@H](C)c1ccccc1)[C@@H](C)c1ccccc1)[C@@H](C)c1ccccc1)[C@@H](C)c1ccccc1)[C@@H](C)c1ccccc1)[C@@H](C)c1ccccc1)[C@@H](C)c1ccccc1 [peptoid 1, reference compound] (H-[Nlys][Nspe][Nspe][Nlys][Nspe][Nspe][Nlys][Nspe][Nspe][Nlys][Nspe][Nspe]-NH2) | 2.5 | 1.3 | –
